# PubChem BioAssay AID743454 – Peter MacCallum Cancer Centre – 2014
# Assay: 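Search for knock-downs that restore vorinostat killing in resistant colon cancer cells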 (primary screen)
# Cells: human HCT116-VR colon cancer cells, selected for vorinostat resistance
# Reagents: siRNA pool against human genes, 40 nM siRNA pool
# Timing: vorinostat for 24 h, read-out about 72 h after transfection
# Treatment: vorinostat at 2.5 µM final
# Measurement: 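Cell viability by CellTiter-Fluor and caspase 3/7 activity by luminescence, each scaled to mock wells per plate, duplicates averaged, then robust z-scored over all plates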
# Scale: viability robust z-score: higher = more viable cells than screen typical; caspase robust z-score: higher = more caspase 3/7 activity than screen typical
# Active means: 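Hits are knock-downs in viability class RV1/RV2 or caspase class CA1/CA2, excluding ones that killed cells in the no-drug cell-count arm; hits then retested with single siRNAs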
# The deposit covers about 18,000 reagents; below is an unselected part. Of all reagents, 450 (2.5%) were called active. 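Single biological run; no consistent viability z cut-off exists, so the class columns, not z-scores, define the calls.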 Reagent sequences are not shown.
gene knocked down,viability hit class,caspase hit class,viability robust z-score,caspase robust z-score,outcome
GCGR,no change,no change,0.34,-0.71,inactive
DEUP1,no change,no change,1.4,0.13,inactive
VTI1A,no change,no change,0.38,-0.48,inactive
DHX30,no change,no change,-0.62,-0.16,inactive
GTF3C3,no change,no change,0.48,0.05,inactive
ZMYM6,no change,no change,0,0.1,inactive
SBNO2,no change,no change,0.24,0.16,inactive
SDSL,no change,no change,0.91,0.72,inactive
TMEM154,no change,no change,0.02,-0.04,inactive
SIM2,no change,no change,0.85,-0.39,inactive
C6orf62,no change,no change,1.13,-0.6,inactive
PIK3C2G,no change,no change,0.54,1.28,inactive
TENT4A,no change,no change,-0.08,-1.19,inactive
CRIPT,no change,no change,-0.16,-0.42,inactive
CIART,no change,no change,0.74,-0.24,inactive
MRPL34,no change,no change,-2.55,0.95,inactive
FAM20C,no change,no change,1.12,-0.74,inactive
SLC16A3,no change,no change,0.12,0.16,inactive
IGFBP2,no change,no change,1.19,1.81,inactive
ZNF518B,no change,no change,0.2,0.5,inactive
RGN,no change,no change,-0.49,1.28,inactive
OR2M7,no change,no change,-0.55,0.55,inactive
CCDC172,no change,no change,0.55,-1.15,inactive
GGTLC1,no change,no change,0.89,0.78,inactive
IL32,no change,no change,0.43,-0.28,inactive
CYP3A7,no change,no change,0.18,-0.02,inactive
PPP1R11,no change,no change,1.21,0.34,inactive
NOD1,no change,no change,0.5,-0.76,inactive
PEDS1,no change,no change,0.74,-0.32,inactive
TCTN3,no change,no change,-0.3,-0.06,inactive
HTR1B,no change,no change,1.31,-0.36,inactive
LAMTOR1,no change,no change,0.59,0.02,inactive
GPR62,no change,no change,-0.05,-0.56,inactive
MAPRE3,no change,no change,-0.24,-0.6,inactive
NGF,no change,no change,-0.38,-0.68,inactive
SF1,no change,no change,-0.17,0.04,inactive
PYDC1,no change,no change,1.1,-0.08,inactive
VWF,no change,no change,0.32,-0.7,inactive
NCKAP1,no change,no change,0.74,-0.66,inactive
TTC5,no change,no change,0.74,-0.44,inactive
SRSF3,no change,no change,-3.04,3.58,inactive
PTER,no change,no change,0.58,-0.83,inactive
GFPT1,no change,no change,0.01,-0.34,inactive
TMEFF1,no change,no change,1.03,-0.65,inactive
MBP,no change,no change,0.74,3.94,inactive
ZC3H7B,no change,no change,-0.91,2.42,inactive
HHLA2,no change,no change,-0.06,-0.46,inactive
ADGRA1,no change,no change,-0.28,0.04,inactive
EHBP1,no change,no change,-0.55,-0.48,inactive
RBPMS2,no change,CA1 (caspase activation),-1.84,6.8,active
SRRM4,no change,no change,0.37,2.7,inactive
ERN1,no change,no change,-1.06,0.47,inactive
CST6,no change,no change,0.84,-0.36,inactive
FAM234A,no change,no change,-1.17,0.55,inactive
LAMP3,no change,no change,-0.32,0.46,inactive
METTL2A,no change,no change,0.8,-1.16,inactive
LCE3C,no change,CA1 (caspase activation),0.1,7.81,active

Sorted by “caspase robust z-score” (highest first): 8 of the entries above.
gene knocked down,viability hit class,caspase hit class,viability robust z-score,caspase robust z-score,outcome
RBPMS2,no change,CA1 (caspase activation),-1.84,6.8,active
SRRM4,no change,no change,0.37,2.7,inactive
ZC3H7B,no change,no change,-0.91,2.42,inactive
ERN1,no change,no change,-1.06,0.47,inactive
ADGRA1,no change,no change,-0.28,0.04,inactive
CST6,no change,no change,0.84,-0.36,inactive
HHLA2,no change,no change,-0.06,-0.46,inactive
EHBP1,no change,no change,-0.55,-0.48,inactive
